In publication PMC5345878:
These are yes or no findings as the source states them, for the method shown. In cells and extracts the contact can be indirect. These calls come from enrichment with a bait or labelling near it, and not all partners need be listed. Values belong to the binder of their own block, whether it stands above or below them.

Target: Histone variant H2A.B.3 (mouse)
Assay: affinity purification with mass spectrometry; formaldehyde crosslinked mononucleosomes (MNase I) from testes of 28-30 day old mice; anti-H2A.B.3 or anti-H2A.Z antibody covalently bound to Dynabeads, 4 hours at 4°C; washes with 1 M NaCl; LC-MS/MS; two replicates each; proteins common to H2A.Z and H2A.B.3 removed

binding: binds
B1: Symplekin (protein, UniProt Q80X82 1-1288)
chain: MASSSGDSVTRRSVASQFFTQEEGPSIDGMTTSERVVDLLNQAALITNDSKITVLKQVQELIINKDPTLLDNFLDEIIAFQADKSIEVRKFVIGFIEEACKRDIELLLKLIANLNMLLRDENVNVVKKAILTMTQLYKVALQWMVKSRVISDLQEACWDMVSSMAGEIILLLDSDNDGIRTHAIKFVEGLIVTLSPRMADSEVPRRQEHDISLDRIPRDHPYIQYNVLWEEGKAAVEQLLKFMVHPAISSINLTTALGSLANIARQRPMFMSEVIQAYETLHANLPPTLAKSQVSSVRKNLKLHLLSVLKHPASLEFQAQITTLLVDLGTPQAEIARNMPSSKDSRKRPRDDTDSTLKKMKLEPNLGEDDEDKDLEPGPSGTSKASAQISGQSDTDITAEFLQPLLTPDNVANLVLISMVYLPETMPASFQAIYTPVESAGTEAQIKHLARLMATQMTAAGLGPGVEQTKQCKEEPKEEKVVKPESVLIKRRLSVQGQAISVVGSQSTMSPLEEEVPQAKRRPEPIIPVTQPRLAGAGGRKKIFRLSDVLKPLTDAQVEAMKLGAVKRILRAEKAVACSGAAQVRIKILASLVTQFDSGFKAEVLSFILEDVRARLDLAFAWLYQEYNAYLAAGTSGTLDKYEDCLICLLSGLQEKPDQKDGIFTKVVLEAPLITESALEVIRKYCEDESRAYLGMSTLGDLIFKRPSRQFQYLHVLLDLSSHEKDRVRSQALLFIKRMYEKEQLREYVEKFALNYLQLLVHPNPPSVLFGADKDTEVAAPWTEETVKQCLYLYLALLPQNHKLIHELAAVYTEAIADIKRTVLRVIEQPIRGMGMNSPELLLLVENCPKGAETLVTRCLHSLTDKVPPSPELVKRVRDLYHKRLPDVRFLIPVLNGLEKKEVIQALPKLIKLNPIVVKEVFNRLLGTQHGEGNSALSPLNPGELLIALHNIDSVKCDMKSIIKATNLCFAERNVYTSEVLAVVMQQLMEQSPLPMLLMRTVIQSLTMYPRLGGFVMNILARLIMKQVWKYPKVWEGFIKCCQRTKPQSFQVILQLPPQQLGAVFDKCPELREPLLAHVRSFTPHQQAHIPNSIMTILEATGKQEPEVKEAPSGPLEEDDLEPLALALAPAPAPAPAPAPAPAPAPRPPQDLIGLRLAQEKALKRQLEEEQKQKPTGIGAPAACVSSTPSVPAAARAGPTPAEEVMEYREEGPECETPAIFISMDDDSGLAETTLLDSSLEGPLPKEAAAVGSSSKDERSPQNLSHAVEEALKTSSPETREPESKGNS

binding: binds
B2: U2 small nuclear ribonucleoprotein A' (protein, UniProt P57784 1-255)
chain: MVKLTAELIEQAAQYTNAVRDRELDLRGYKIPVIENLGATLDQFDAIDFSDNEIRKLDGFPLLRRLKTLLVNNNRICRIGEGLDQALPCLTELILTNNSLVELGDLDPLASLKSLTYLSILRNPVTNKKHYRLYVIYKVPQVRVLDFQKVKLKERQEAEKMFKGKRGAQLAKDIARRSKTFNPGAGLPTDKKKGGPSAGDVEAIKNAIANASTLAEVERLKGLLQSGQIPGRERRSGPSDEGEEEIEDDTVTNGS

binding: binds
B3: Nucleolysin TIA-1 (protein, UniProt P52912 1-386)
chain: MEDEMPKTLYVGNLSRDVTEALILQLFSQIGPCKNCKMIMDTAGNDPYCFVEFHEHRHAAAALAAMNGRKIMGKEVKVNWATTPSSQKKDTSSSTVVSTQRSQDHFHVFVGDLSPEITTEDIKAAFAPFGRISDARVVKDMATGKSKGYGFVSFFNKWDAENAIQQMGGQWLGGRQIRTNWATRKPPAPKSTYESNTKQLSYDEVVSQSSPNNCTVYCGGVTSGLTEQLMRQTFSPFGQIMEIRVFPDKGYSFVRFSSHESAAHAIVSVNGTTIEGHVVKCYWGKETLDMINPVQQQNQIGYPPTYGQWGQWYGNAQQIGQYVPNGWQVPAYGVYGQPWSQQGFNQTQSSAPWMGPNYSVPPPQGQNGSMLPSQPAGYRVAGYETQ
